Screening data

Source: PubChem BioAssay AID1159506 (NCATS, 2015).

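Genome-wide siRNA knockdown in TC32 Ewing sarcoma cells, comparing luciferase light from an NR0B1-promoter reporter with a CMV-promoter reporter 48 hours after transfection.
Each siRNA was applied at 20 nM.
A z-score of the log NR0B1-over-CMV signal, less the median of siRNAs with the same seed; more negative means a stronger specific loss of the NR0B1 reporter.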

This is part of the screen; most of the strongest results are not listed here.
Sequences are the guide (antisense) strand, without overhang.

With UUAGGUGCUGCCUUUGUAG against RPL24 the assay gave seed-corrected z-score -1.834. UCAGGUUCAGAACAUAAGG against TTYH1 gave seed-corrected z-score -1.083. For UUUAAAACGGGCAUCAUCG against NIPBL-AS1 the result was seed-corrected z-score -0.03053. For UUAGAUGCCUCUAAGAGUC against TNKS the result was seed-corrected z-score -1.171.

UUUAGAGCUAGCAUAAAUC against CFL2 gave seed-corrected z-score 0.683. UUCCCGGCAACUGUAAUGC against ANKFN1 gave seed-corrected z-score 0.5395. For UGUCCAAACUUUCCAGUUC against HHEX the result was seed-corrected z-score -0.4951. With UUUCGAAUAUGAAGUACAC against PTBP2 the assay gave seed-corrected z-score 0.231.

UCUCCCUUAAUAAGCCUGG against ARL6IP4 gave seed-corrected z-score -0.2498. Result for AUAGUGUAUAUUGCCGAAC against CATSPERB was seed-corrected z-score 0.7227. UUUGAGUGAAGAUCCGCUG against NLGN1 read seed-corrected z-score 0.1029. Result for AAUCCGAUGGAAUAAGUCU against TMEM184B was seed-corrected z-score 1.198.

AUAGUACUUAUACAGGAUG against RNF216 read seed-corrected z-score -0.02621. For UAGAGCUUCACUAUAUCGC against EDRF1 the result was seed-corrected z-score -0.2225. With UUCAGUAGCAUAGUCUAGC against DKFZP547L112 the assay gave seed-corrected z-score 0.1073. UGCAUAAGUAUUACUAUCC against DNAH8 gave seed-corrected z-score -0.3263.

For AACUGAACAAAAGUCAUGC against PPP1R36 the result was seed-corrected z-score 0.8975. With UUUCGUACUAGCACCUCGG against GTPBP2 the assay gave seed-corrected z-score 0.02488. UUCUGGAUUGACAUUGACA against C1orf186 read seed-corrected z-score -0.1239. Result for UUUAUAGUCAGCAUAAGCC against HSPBAP1 was seed-corrected z-score 0.0574.

For AUCGUCUGCAGAGCUAUGA against SURF4 the result was seed-corrected z-score -0.5903. For UCCACGAUAAGCAUGAUGA against SLC6A20 the result was seed-corrected z-score -0.0028. Result for AAACUUAACUUUGCAAUCC against LOC131055 was seed-corrected z-score 0.2822. With UAUUCGGUCAUCAACUUUG against ARFGEF3 the assay gave seed-corrected z-score 0.9129.

UGCAGGCUGACAAUAGUGG against ID2 gave seed-corrected z-score -1.51. UCAGCUCGAACUCGUAUCC against IRF2BP1 read seed-corrected z-score 0.3142. For UUUUGUUCCAAAGUCGUUG against LOC284577 the result was seed-corrected z-score 0.5764. With CACAUACAGACCUUUAGGC against RPS10P15 the assay gave seed-corrected z-score 0.9926.

Result for UUCUUUAUACAGGAGCUCC against TOR3A was seed-corrected z-score -1.202. With AUUUUAGACAGGCAAAUUC against NR2E1 the assay gave seed-corrected z-score 1.228. For UACGAGUAAAUCUCAAAUC against UHRF1BP1L the result was seed-corrected z-score 0.6073. UAAAGCGAGAGAAACAAGU against C10orf95 read seed-corrected z-score 0.3342.

UUAUUUUACUCGAUGAUCU against CCSAP read seed-corrected z-score 0.201. With UGUAGGUUCAGCACAAGGU against PHB2 the assay gave seed-corrected z-score 1.134. UAGUAGAUAAUAGUCAGGG against MORN2 read seed-corrected z-score -0.5779. Result for UCUUCGUCAAGUAGUAAUC against TRIM14 was seed-corrected z-score 0.156.

With AACAUCAUUACCACUAGGU against TERF1 the assay gave seed-corrected z-score 0.2435. With AUAUUGUAUCUCCUAGUUC against ELOVL6 the assay gave seed-corrected z-score 0.7383. For UCGCUUUUCAGGUCUGAUC against SAMD9L the result was seed-corrected z-score 0.3912. For UACUGUUCCCGUUGCUAUC against DEF6 the result was seed-corrected z-score 0.3365.

With UUGCGGUUCACUUCAUUGU against GFER the assay gave seed-corrected z-score -1.25. UUGGAUCCAAUAGGUGAUG against MMP9 gave seed-corrected z-score -0.5976. UAAACUCAAAGUCGAAGGC against VPS26B gave seed-corrected z-score -0.007749. Result for UUAGGUGUUACUGAAACCC against NOA1 was seed-corrected z-score -0.4074.

With UAGACGGCGAUAAACUUGC against IL17RD the assay gave seed-corrected z-score -0.1418. Result for UGCGUGAUUAUAUUGCCUG against USP6NL was seed-corrected z-score -0.7366.

Some entries from above, unchanged:

siRNA	target gene	seed-corrected z-score
UGCAGGCUGACAAUAGUGG	ID2	-1.51
UACGAGUAAAUCUCAAAUC	UHRF1BP1L	0.6073
UUUGAGUGAAGAUCCGCUG	NLGN1	0.1029
UUCCCGGCAACUGUAAUGC	ANKFN1	0.5395